Percent effect of library compounds

Protein sequences, listed by entry. Tags and fused reporters are not part of them. Residues count along the entry.
UniProt I6X8D2, whole entry: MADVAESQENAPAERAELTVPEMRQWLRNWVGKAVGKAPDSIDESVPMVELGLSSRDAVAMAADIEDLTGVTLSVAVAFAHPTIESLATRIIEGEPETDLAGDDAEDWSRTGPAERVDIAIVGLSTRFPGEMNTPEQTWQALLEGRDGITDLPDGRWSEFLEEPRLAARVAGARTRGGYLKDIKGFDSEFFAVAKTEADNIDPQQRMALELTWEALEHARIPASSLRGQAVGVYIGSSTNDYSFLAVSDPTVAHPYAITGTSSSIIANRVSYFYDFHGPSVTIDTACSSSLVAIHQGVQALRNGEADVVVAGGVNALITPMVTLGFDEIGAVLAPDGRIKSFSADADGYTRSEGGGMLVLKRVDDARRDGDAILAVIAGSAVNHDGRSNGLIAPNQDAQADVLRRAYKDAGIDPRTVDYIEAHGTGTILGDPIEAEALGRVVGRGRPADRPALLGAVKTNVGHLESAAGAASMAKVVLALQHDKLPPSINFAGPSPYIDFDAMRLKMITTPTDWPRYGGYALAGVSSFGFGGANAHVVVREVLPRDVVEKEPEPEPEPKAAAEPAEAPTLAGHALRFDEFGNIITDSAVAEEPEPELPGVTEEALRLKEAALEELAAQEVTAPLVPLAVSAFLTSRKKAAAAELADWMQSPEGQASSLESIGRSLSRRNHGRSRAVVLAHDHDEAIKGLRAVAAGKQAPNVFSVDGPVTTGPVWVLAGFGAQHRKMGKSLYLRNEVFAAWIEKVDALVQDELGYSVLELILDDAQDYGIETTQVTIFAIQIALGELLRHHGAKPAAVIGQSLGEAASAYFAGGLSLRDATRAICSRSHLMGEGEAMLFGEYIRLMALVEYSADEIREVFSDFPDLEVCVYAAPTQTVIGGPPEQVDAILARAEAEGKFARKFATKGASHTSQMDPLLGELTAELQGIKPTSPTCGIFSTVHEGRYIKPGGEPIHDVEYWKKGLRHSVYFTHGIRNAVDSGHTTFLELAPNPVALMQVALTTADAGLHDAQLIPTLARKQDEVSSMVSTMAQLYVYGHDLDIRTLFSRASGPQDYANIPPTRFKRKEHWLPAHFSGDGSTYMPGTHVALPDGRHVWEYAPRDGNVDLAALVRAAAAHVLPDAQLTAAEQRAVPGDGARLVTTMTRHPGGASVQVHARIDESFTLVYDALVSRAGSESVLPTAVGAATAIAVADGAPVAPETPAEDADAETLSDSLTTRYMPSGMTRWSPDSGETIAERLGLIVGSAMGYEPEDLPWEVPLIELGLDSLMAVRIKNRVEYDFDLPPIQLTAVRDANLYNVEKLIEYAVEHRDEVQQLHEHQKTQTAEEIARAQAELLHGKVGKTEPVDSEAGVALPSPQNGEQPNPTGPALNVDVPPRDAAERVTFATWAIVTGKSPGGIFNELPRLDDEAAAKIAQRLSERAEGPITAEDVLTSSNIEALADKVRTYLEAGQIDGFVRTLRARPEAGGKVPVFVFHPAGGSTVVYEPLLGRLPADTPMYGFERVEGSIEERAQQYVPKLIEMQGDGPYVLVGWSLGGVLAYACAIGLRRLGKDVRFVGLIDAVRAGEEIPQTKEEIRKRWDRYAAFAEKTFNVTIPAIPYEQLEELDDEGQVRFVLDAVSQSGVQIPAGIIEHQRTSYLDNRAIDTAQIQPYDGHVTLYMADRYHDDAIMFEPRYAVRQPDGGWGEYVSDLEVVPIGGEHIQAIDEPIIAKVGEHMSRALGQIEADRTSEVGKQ
UniProt P9WNZ1, whole entry: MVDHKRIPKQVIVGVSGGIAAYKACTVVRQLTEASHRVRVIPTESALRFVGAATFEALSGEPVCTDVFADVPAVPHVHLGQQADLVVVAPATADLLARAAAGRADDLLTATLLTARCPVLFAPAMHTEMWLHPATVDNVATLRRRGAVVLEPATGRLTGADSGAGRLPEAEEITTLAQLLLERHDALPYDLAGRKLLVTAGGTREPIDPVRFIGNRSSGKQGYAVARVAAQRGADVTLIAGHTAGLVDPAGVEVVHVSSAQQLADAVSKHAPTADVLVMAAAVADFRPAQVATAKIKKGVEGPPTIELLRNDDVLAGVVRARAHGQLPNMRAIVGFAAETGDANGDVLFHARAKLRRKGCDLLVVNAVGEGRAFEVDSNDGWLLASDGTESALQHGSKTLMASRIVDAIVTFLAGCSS
UniProt Q8IDJ8, 1-583: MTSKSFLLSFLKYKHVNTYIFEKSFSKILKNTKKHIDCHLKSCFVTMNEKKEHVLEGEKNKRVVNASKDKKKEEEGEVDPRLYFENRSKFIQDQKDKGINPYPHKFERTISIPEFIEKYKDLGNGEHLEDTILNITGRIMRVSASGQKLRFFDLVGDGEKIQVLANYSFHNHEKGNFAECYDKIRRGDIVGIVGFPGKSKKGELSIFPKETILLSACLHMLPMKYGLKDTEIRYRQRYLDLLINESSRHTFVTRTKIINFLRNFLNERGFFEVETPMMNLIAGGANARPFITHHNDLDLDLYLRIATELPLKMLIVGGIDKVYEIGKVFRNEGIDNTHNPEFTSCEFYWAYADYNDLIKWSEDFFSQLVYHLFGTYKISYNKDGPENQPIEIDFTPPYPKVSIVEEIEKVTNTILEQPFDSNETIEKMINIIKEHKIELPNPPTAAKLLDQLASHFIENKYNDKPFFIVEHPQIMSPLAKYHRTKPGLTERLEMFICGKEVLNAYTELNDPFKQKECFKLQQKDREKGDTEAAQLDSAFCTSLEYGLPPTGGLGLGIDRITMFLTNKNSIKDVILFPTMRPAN
UniProt Q4DA54, 1-478: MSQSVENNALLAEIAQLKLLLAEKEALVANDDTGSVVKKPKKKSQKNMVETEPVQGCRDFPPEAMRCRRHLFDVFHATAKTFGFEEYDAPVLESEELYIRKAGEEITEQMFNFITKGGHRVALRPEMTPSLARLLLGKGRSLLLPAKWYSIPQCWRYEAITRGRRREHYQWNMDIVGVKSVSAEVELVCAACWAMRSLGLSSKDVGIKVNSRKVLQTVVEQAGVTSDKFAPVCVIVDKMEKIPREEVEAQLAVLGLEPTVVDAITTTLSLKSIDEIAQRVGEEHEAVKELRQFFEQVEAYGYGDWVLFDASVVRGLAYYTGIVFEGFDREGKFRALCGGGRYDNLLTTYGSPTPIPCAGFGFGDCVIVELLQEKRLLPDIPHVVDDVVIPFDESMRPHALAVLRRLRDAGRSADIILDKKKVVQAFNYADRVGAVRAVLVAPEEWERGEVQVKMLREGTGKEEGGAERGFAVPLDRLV

The values are deposited in ChEMBL (CHEMBL3988442, “University of Dundee, Small-Polar-MMV Screening Library” (2021)).

Pks13 thioesterase: 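Enzyme assay of the thioesterase domain of polyketide synthase 13; the read-out is not stated. Target: Polyketide synthase Pks13, Mycobacterium tuberculosis (UniProt I6X8D2). Tested at 30 µM. The record gives no direction; the compounds picked for IC50 retests had high values, so higher reads as stronger inhibition. Size under these conditions: about 67,000 compounds, about 300 of them at 50% or above in at least one test.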
CoaBC: 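Enzyme assay of CoaBC with a phosphate dye (Biomol Green) read at 650 nm. Target: Coenzyme A biosynthesis protein CoaBC, Mycobacterium tuberculosis (UniProt P9WNZ1). Compounds at 30 µM. Direction is inferred from only a few compounds that gave an IC50; most scored high, so higher reads as stronger inhibition. Most strong results did not repeat in a second test. About 67,000 compounds were tested under these conditions; 0.06% (about 40) showed 50% or more at least once.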
PfKRS1: 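Enzyme assay of the cytosolic lysyl-tRNA synthetase in 384-well plates, read by luminescence. Target: Lysine-tRNA ligase, Plasmodium falciparum 3D7 (UniProt Q8IDJ8). Concentration: 30 µM. Direction is inferred from only a few compounds that gave an IC50; most scored high, so higher reads as stronger inhibition. Size under these conditions: about 69,000 compounds, about 49 of them at 50% or above in at least one test.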
TcHisRS: 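Histidine-tRNA ligase, Trypanosoma cruzi CL Brener (UniProt Q4DA54). Enzyme assay of histidyl-tRNA synthetase; the read-out is not stated. Compounds at 30 µM. Direction is inferred from retests: higher values go with stronger inhibition. Of about 69,000 compounds tested this way, about 31 (0.045%) reached 50% or more in at least one test.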

Each number is a percent effect as filed. The controls that fix the scale are not given in the record; negative values are as filed. Compounds were drawn at random from those tested, without regard to their results. A dash means the value is not listed here; it may have been measured.

compound,Pks13 thioesterase,CoaBC,PfKRS1,TcHisRS
CCC1c2ccccc2CCN1C(=O)c1ccc(OC)nn1 (centres undefined),-37.64,-28.21,6.429,4.865
CCn1cnnc1CCNCc1c[nH]nc1-c1ccc(F)cc1,-19,-0.8032,-0.01111,1.064
Cc1cnn(CC2CCCN2C(=O)c2c(C)noc2C(C)C)c1 (centres undefined),-35.57,4.302,-2.342,1.156
CCCn1ncc(C(=O)NC(C)c2c(C)nn(CC)c2C)c1C (centres undefined),-3.327,-6.068,-0.1892,6.513
CN(C)C(=O)COC[C@@]12CCC[C@@H]1CN(C1CCCC1)C2,-29.59,-,2.513,2.454
CCOCC1CN(CC2CC2)Cc2cnn(C)c21 (centres undefined),-15.75,0.2538,0.1858,5.911
CCc1cnc(CNC(=O)NCCc2ccc(O)cc2)s1,-7.872,0.3236,0.7322,10.05
Cc1ccc(C)c(NCc2nc3n(n2)CCCCC3)c1,-1.267,1.646,2.124,2.484
CN(CCc1ccccn1)C(=O)CCC1CCCN(c2ccncc2)C1 (centres undefined),-14.1,0.2123,-3.05,4
CC(C)(C)c1n[nH]c(C2CN(Cc3nnc(C4CCC4)o3)CCO2)n1 (centres undefined),-3.921,-1.05,-0.7366,2.286
COC(=O)[C@H]1CN(C(=O)NC(C)C)CCN1C(=O)c1cccs1,-13.64,6.095,4.954,1.98
CSc1ccccc1C(=O)C1CCCN(Cc2cc(C(C)C)[nH]n2)C1 (centres undefined),-33.03,-4.551,-1.633,2.609
Cc1cnn(CCNCc2ccc(OCc3csc(C)n3)cc2)c1,9.515,-25.89,-4.071,4.564
Cc1cccc(CN2C[C@@H](CN3CCCN(C)CC3)[C@@H](CO)C2)n1,17.12,-,0.4218,5.195
COC(=O)c1ccoc1CN(C)Cc1ccccc1,-1.921,4.348,1.179,-5
COCc1ccccc1NC(=O)CCNC(=O)c1ccoc1,4.285,-27.24,5.661,13.23
CCc1cc(C(=O)NCC2CCN(Cc3cccc(C)n3)C2)on1 (centres undefined),-41.74,-5.4,6.683,1.02
Cc1ccc(CN2CCOCC2c2[nH]ncc2C)cn1 (centres undefined),7.173,-2.466,-1.047,3.788
N#Cc1ccccc1N1CCN(C(=O)NCC(=O)N2CCCC2)CC1,-8.66,3.175,2.344,2.041
COCC(Nc1ncnc2c1CCNCC2)c1ccccn1 (centres undefined),41.92,3.817,4.401,-1.205
O=C(NCc1ccncc1)C1=NOC2(CCCNC2)C1 (centres undefined),-4.356,3.782,5.819,5.785
O=C(Nc1ccnc(OC2CCOC2)c1)c1cccs1 (centres undefined),-25.12,-0.9615,6.205,8.867
Cc1cccc(N2CCOCC3(C2)CN(c2cncnc2)C(=O)CO3)n1 (centres undefined),-3.18,4.485,4.288,1.676
CC1CN(C)c2ccccc2CN1C(=O)c1ccncc1F (centres undefined),-16.11,-0.489,-2.288,7.216
COc1cc(Cl)ccc1CNC(=O)N(C)C(C)CS(C)(=O)=O (centres undefined),-16.99,0.7299,-1.704,7.879
Cc1nc(C(=O)NCCS(=O)(=O)N2CCCC2)cs1,-34.79,6.667,-0.7451,1.493
c1cc(CN2CCC3(CCOCC3COCC3CC3)CC2)ccn1 (centres undefined),-33.02,0.2545,6.516,10.68
O=C(c1cnccn1)N1C[C@@H]2[C@@H](C1)OCC(=O)N2CC1CCCC1,3.55,-67.1,2.908,-299
CC(C)N(C)C(=O)CN1C(=O)OC[C@@H]1c1ccccc1,11.86,0.6098,1.44,5.422
COc1ccc(C(O)CNC(=O)NCCc2csc(C)n2)cc1 (centres undefined),-4.78,4.337,-0.1318,5.263
Cc1ccc(-c2nc(C3CCN(C(=O)c4ccn(C)n4)CC3)no2)cn1,-7.913,1.598,1.439,0.8571
Cc1cnn(C2CCCN(C(=O)COc3ccc(C(N)=O)cc3)C2)c1 (centres undefined),-11.76,5.4,4.256,5.042

The first 2 entries again:

* CCC1c2ccccc2CCN1C(=O)c1ccc(OC)nn1 (centres undefined) : Pks13 thioesterase: -37.64%; CoaBC: -28.21%; PfKRS1: 6.429%; TcHisRS: 4.865%
* CCn1cnnc1CCNCc1c[nH]nc1-c1ccc(F)cc1 : Pks13 thioesterase: -19%; CoaBC: -0.8032%; PfKRS1: -0.01111%; TcHisRS: 1.064%